Experimental data published in US20040043937A1 (priority 2000, published 2004).

Test: general procedure: peptide synthesis; HATU/collidine
Settings: late stage modification step

Substance: Gua-Mab-azaGly-Asp-Hda-εAhx-εAhx-Aca
- step yield: 95%
